Some results were stated once for a whole list of compounds, not compound by compound.
System: panel of Gram-positive organisms (Staphylococcus aureus, Streptococcus pneumoniae, Streptococcus pyogenes, Enterococcus faecalis, Enterococcus faecium) and …
Assay type: cell-based, Gram-positive and Gram-negative bacteria
Details: against a strain of at least one of the organisms listed; serial two-fold dilutions 0.016 to 16 mcg/mL

Compound `O=c1c(Cl)cc2ncc(F)c3c2n1CC3(O)CN1CCC(NCc2cc3c(cn2)OCCO3)CC1` (racemic) [Example 24, (4R/S)-8-Chloro-4-({4-[(2,3-dihydro[1,4]dioxino[2,3-c]pyridin-7-ylmethyl)amino]-1-piperidinyl}methyl)-3-fluoro-4-hydroxy-4,5-dihydro-7H-pyrrolo[3,2,1-de]-1,5-naphthyridin-7-one] has an MIC of no more than 41 g/ml.
For `O=c1[nH]c2ccccc2nc1CNC1CCN(C[C@]2(O)Cn3c(=O)ccc4ncc(F)c2c43)CC1` [Example 38], the MIC was no more than 41 g/ml.
Work on `O=c1[nH]c(CNC2CCN(C[C@]3(O)Cn4c(=O)ccc5ncc(F)c3c54)CC2)nc2ccccc12` [Example 39] yielded an MIC of no more than 41 g/ml.
